Experimental data: article PMC5014551
These are yes or no findings as the source states them, for the method shown. Some entries that bind do so weakly or less than the wild type.

T1: recombinant human BOLA3, fluorescently labelled (human) (UniProt Q53S33)
T1 sequence (chain, NT-647 dye (Monolith NT Protein Labeling Kit RED)): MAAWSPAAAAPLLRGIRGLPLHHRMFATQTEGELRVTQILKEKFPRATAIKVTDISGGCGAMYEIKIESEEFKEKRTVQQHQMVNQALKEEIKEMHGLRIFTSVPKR

T2: recombinant human BOLA1, fluorescently labelled (human) (UniProt Q9Y3E2)
T2 sequence (chain, NT-647 dye (Monolith NT Protein Labeling Kit RED)): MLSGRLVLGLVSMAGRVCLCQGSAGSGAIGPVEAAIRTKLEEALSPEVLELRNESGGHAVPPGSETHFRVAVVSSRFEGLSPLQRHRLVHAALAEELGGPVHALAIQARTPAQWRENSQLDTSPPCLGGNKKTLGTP

B1: human holo-GLRX5 dimer containing the bridging [2Fe-2S] cluster (protein, UniProt Q86SX6 32-157)
chain: AGSGAGGGGSAEQLDALVKKDKVVVFLKGTPEQPQCGFSNAVVQILRLHGVRDYAAYNVLDDPELRQGIKDYSNWPTIPQVYLNGEFVGGCDILLQMHQNGDLVEELKKLGIHSALLDEKKDQDSK
modifications: bridging [2Fe-2S] cluster between two GLRX5 monomers
B2: human apo-GLRX5 (protein, UniProt Q86SX6 32-157)
chain: B1 chain
B3: Bol3-Strep (protein, UniProt P39724 1-118)
chain: MKLPQTMLRSISVKHVRWPRILTGSKLWYSTQMAMTPEEKMITDKLQQELEPEVCKVQDVSGGCGSMFAINITSKKFNGLSLIKQHQLVNRILRDDISRWHGLQLTTKKSTGKGPASS

Key:
[1] = target: T1, recombinant human BOLA3, fluorescently labelled (human); experiment: MST; 200 nM NT-647 labelled protein titrated with unlabelled protein from 200 µM to 6.1 nM; 50 mM KPi pH 7.4, 150 mM NaCl, 5% glycerol, 0.05 mg/mL BSA, 0.05% Tween20; 21°C; anaerobic; both purified
[2] = target: T2, recombinant human BOLA1, fluorescently labelled (human); experiment: as above
[3] = target: Bol3-Strep (S. cerevisiae) (UniProt P39724); experiment: SEC; mitochondrial lysates (sonication, 50 mM NaPO4, 150 mM NaCl, pH 7.0) of Nfu1-Strep or Bol3-Strep cells chromatographed separately on HiLoad Superdex 75 PG 16/600; fractions immunoblotted; DTT left the Nfu1 elution unaffected, dithionite attenuated the apparent dimer

| Binder | binding [1] | binding [2] | binding [3] |
| --- | --- | --- | --- |
| B1 | binds |  |  |
| B2 | binds | binds |  |
| B3 |  |  | no binding |
